± gives the standard deviation of the averaged measurements. Some of the results follow. The data scatter; read single values as rough.
Assays:
Conditions in all cases: 10 µM
[1] = tested on: Plasmodium vivax liver stage (primary human hepatocyte culture); experiment: hypnozoite quantity inhibition (% inhibition); higher = more active against hypnozoites
[2] = tested on: Plasmodium vivax liver stage (primary human hepatocyte culture); experiment: schizont net growth area inhibition (% inhibition); higher = more active against liver schizonts
[3] = tested on: primary human hepatocytes; experiment: hepatic nuclei reduction relative to DMSO (100 - % of negative control); higher = more toxic to hepatocytes
[4] = assay mode: Prophylactic (treated before or shortly after infection), fixed day 6 post-infection
[5] = assay mode: Radical Cure (treated from day 5 post-infection for 3 days), fixed day 8 post-infection

Compound	hypnozoite quantity inhibition [1, 4]	hypnozoite quantity inhibition [1, 5]	schizont net growth area inhibition [2, 4]	schizont net growth area inhibition [2, 5]	hepatic nuclei reduction [3, 4] [%]	hepatic nuclei reduction [3, 5] [%]
C[C@H](C(N)=O)N1CCCC[C@H]1c1ccc(OCc2cccc(F)c2)cc1	7	1	17.2	31	6	2
CC[C@@H]([C@H](C)O)n1ncn(-c2ccc(N3CCN(c4ccc(OC[C@@H]5CO[C@@](Cn6cncn6)(c6ccc(F)cc6F)C5)cc4)CC3)cc2)c1=O	10	-18	28.9	28.4	4	3
c1csc(-c2cnc3sc(NCC4CCOCC4)nn23)c1	-10	-15	30.3	-140	-5	-4
CC(C)(C)c1ccc(C(=O)Nc2c3c(nn2-c2cccc(Cl)c2)CSC3)cc1	-1.3	26.7	7.7	-31.7	-3	-5
COc1ccc(Nc2ccccc2NC(=O)c2ccc(O)nc2)cc1	3	-4	43	-24.6	4	-4
CCn1c(SCC(=O)Nc2cc(C(F)(F)F)ccc2Cl)nc2ccccc2c1=O	10.1	23.7	19.2	2.5	0	-5
COc1ccccc1N1C(=N)SC(=Cc2ccc(OCc3ccccc3F)cc2)C1=O	-14.7	31.3	-63.5	54	-9	-5
O=C(NC1CCCCC1)C(c1cccs1)N(CCc1ccccc1)C(=O)c1ccco1 (stereo not given)	15.8	42.8	13.1	-9.5	1	-4
O=C(NC1CCCc2c1[nH]c1ccc(Cl)cc21)c1ccccn1 (stereo not given)	27	-24	-115	-15.1	3	-14
CC(C)NCC(=O)Nc1cccc(C(=O)Nc2cccc(C(F)(F)F)c2)c1	-163	40	-69.1	40.3	-2	3
N=C(N)c1ccc(-c2cc(-c3ccccc3)on2)cc1	10	-15	41.4	-54.1	-3	-6
N=C(N)c1ccc(-c2ccc(-c3ccc(C(=N)N)cc3)o2)cc1	6	15	-37.3	33.3	-36	-37
CCC(NC(=O)c1ccccc1NC(=O)c1ccc(C)cc1)C(=O)OC (stereo not given)	-17	-39	21.8	2	-11	-4
Clc1ccc(Cl)c(CO[C@H]2CCCC[C@@H]2n2ccnc2)c1	-11	-51	-20.4	-116	-4	-21
O=C1Nc2ccc(Br)cc2C12NCCc1c2[nH]c2ccccc12 (stereo not given)	-68	-28	39.7	-218	-3	4
COc1ccc(N2CCN(C(CNC(=O)CC(C)(C)C)c3ccc4c(c3)OCO4)CC2)cc1 (stereo not given)	-40.7	15.3	27.3	2.8	-12	-2
O=C(NCc1ccco1)N1CCN(Cc2ccc(Cl)s2)CC1	-41	-2	13.8	-115	4	-4
O=CN(O)CCCP(=O)(O)O	-27	34	34.1	9.4	-4	5
OC(CNC1CCCCC1)Cn1c2ccccc2c2ccccc21 (stereo not given)	64.5	18.3	86.5	-29.3	7	-8
COc1cccc(Cn2c(Oc3ccccc3)nc3c2c(=O)n(C)c(=O)n3C)c1	-8.7	29	-11.7	31.4	-3	-4
Oc1c(CN2CCN(c3ccccc3F)CC2)cc(Br)c2cccnc12	-18.4	63.4	-18	42.2	-8	7
Clc1ccc(CCNc2cc(-c3ccccc3)nc3ncnn23)cc1	15	-20	33.8	-29.4	0	-11
Cc1[nH]c2ccccc2c1C(c1cccs1)N1CCN(C)CC1 (stereo not given)	15	3	12.9	-6	1	10
Cc1cc(Nc2ccc(C(F)(F)F)nc2)n2nc(C(C)(F)F)nc2n1	-31	2	63.4	62.4	-6	3
CCS(=O)(=O)N(Cc1ccco1)Cc1cc2ccc(C)cc2nc1O	14	0	-45.8	12.5	-1	7

Compound	hypnozoite quantity inhibition [1, 4]	hypnozoite quantity inhibition [1, 5]	schizont net growth area inhibition [2, 4]	schizont net growth area inhibition [2, 5]	hepatic nuclei reduction [3, 4] [%]	hepatic nuclei reduction [3, 5] [%]
NCC(=O)N1CCn2c(nc(-c3ccccc3)c2Nc2ccc3c(c2)OCO3)C1	-9	-48	-85.6	-20.2	-2	-3
c1coc(CNc2nc(N3CCCCC3)nc3ccccc23)c1	-96	32	29.7	-121	-1	10
O=C1N(Cc2cc3ccccc3s2)CC2CN(Cc3ccccc3)CCN12 (stereo not given)	56	-80	102	67.7	2	-6
COc1ccc(CCN2C(=O)c3[nH]nc(-c4cc(Cl)c(C)cc4O)c3C2c2ccccc2F)cc1 (stereo not given)	-7	-38.9	-25.6	-7.7	-1	-6
CCOc1ccc(Nc2ccnc3cc(Cl)ccc23)cc1	-51.1	54.2	-4.6	17.7	-16	-7
C[C@H]1[C@H](O)[C@@H](C)/C=C/C=C/C=C/C=C/C=C/C=C/C=C/[C@H](O[C@@H]2O[C@@H](C)[C@H](O)[C@@H](N)[C@H]2O)C[C@@H]2O[C@](O)(C[C@H](O)C[C@H](O)[C@@H](O)CC[C@H](O)C[C@H](O)CC(=O)O[C@H]1C)C[C@H](O)[C@H]2C(=O)O	-36	-29	25.9	2.6	-11	-4
CCCCCCCCCCCCCCCCOP(=O)([O-])OCC[N+](C)(C)C	-40	4	-28.3	31.4	-8	11
O=C(NCc1ccco1)C1CCN(S(=O)(=O)c2ccc(Br)cc2)CC1	16.5	33.6	-11.6	-14.7	5	10
C[C@]12CC[C@@H]3c4ccc(O)cc4CC[C@H]3[C@@H]1CC[C@@H]2O	-47	26	-16.6	10.1	-4	-3
CC(C)(C)C1CCC(CC2=C(O)C(=O)c3ccccc3C2=O)CC1 (stereo not given)	-51	-44	67.2	12.6	-4	-3
O=C(NCc1nnc2n1CCCCC2)c1ccc(-c2ccc(F)cc2)o1	-102	-49	18	-124	-4	3
CC(=O)Nc1ccc(NC(=O)c2cc(-c3cc(Cl)ccc3O)[nH]n2)cc1	-28	9	-6.2	-34.8	1	4
COc1ccccc1OCCCCn1c(C2CC2)nc2ccccc21	11	-7	40.5	-83.4	1	-7
CC1CCCCN1C(=O)NCCc1coc(-c2ccc(F)cc2)n1 (stereo not given)	4	9	47.5	11.1	-7	-6
CCc1ccc(CNCC(O)c2ccccc2)cc1 (stereo not given)	7.6	-22.6	14.9	-73.2	0	-15
COc1cc(OC)cc(C(=O)Nc2ccc(-c3nc4ccccc4[nH]3)cc2)c1	–	–	–	–	-14	7
COc1ccc(-n2ccnc2SCC(=O)Nc2cc(C)ccc2C)c(OC)c1	-28.4	45.5	-6.6	-21.9	5	-5
O=C(Nc1nc(-c2ccccn2)cs1)c1cncn1-c1ccccc1	-28	-33	102	0.8	10	1
CC(C)(C)c1ccc(O)c(CNC2CCCCC2)c1	-21.4	31.3	-32.7	10.6	0	-9
Cc1cc(Nc2ccc(S(F)(F)(F)(F)F)cc2)n2nc(C(C)(F)F)nc2n1	-22	41.9 ± 31	81.6	67.9 ± 35	-18	-8.5 ± 7.8
COc1ccc(CN2CCOc3ccc(C(C)(O)CN(C)C)cc3C2)cc1C (stereo not given)	-31	-2	33	-50.3	4	0
Cc1nn(C)c(NC(=O)Cn2c(C(C)C)nc3ccccc32)c1-c1ccc(Cl)cc1F	4	15	24.9	45.4	-4	-3
CCC(Sc1nc2ccccc2o1)C(=O)Nc1nnc(C)s1 (stereo not given)	-51	12	-23.6	-22.5	-1	-8
O=C(Nc1ccccc1O)c1ccc(-c2ccc(Cl)cc2Cl)o1	8.2	48.2	-19	-43.6	-1	-8
Nc1nc(O)c(Br)c(-c2ccccc2)n1	-32	-17	20.8	-8.2	1	4

Ordered by molar mass (low to high): some entries from above.
Compound	hypnozoite quantity inhibition [1, 4]	hypnozoite quantity inhibition [1, 5]	schizont net growth area inhibition [2, 4]	schizont net growth area inhibition [2, 5]	hepatic nuclei reduction [3, 4] [%]	hepatic nuclei reduction [3, 5] [%]
O=CN(O)CCCP(=O)(O)O	-27	34	34.1	9.4	-4	5
CCC(NC(=O)c1ccccc1NC(=O)c1ccc(C)cc1)C(=O)OC (stereo not given)	-17	-39	21.8	2	-11	-4
O=C1Nc2ccc(Br)cc2C12NCCc1c2[nH]c2ccccc12 (stereo not given)	-68	-28	39.7	-218	-3	4
O=C1N(Cc2cc3ccccc3s2)CC2CN(Cc3ccccc3)CCN12 (stereo not given)	56	-80	102	67.7	2	-6
NCC(=O)N1CCn2c(nc(-c3ccccc3)c2Nc2ccc3c(c2)OCO3)C1	-9	-48	-85.6	-20.2	-2	-3
CCn1c(SCC(=O)Nc2cc(C(F)(F)F)ccc2Cl)nc2ccccc2c1=O	10.1	23.7	19.2	2.5	0	-5

(further entries)

Compound	hypnozoite quantity inhibition [1, 4]	hypnozoite quantity inhibition [1, 5]	schizont net growth area inhibition [2, 4]	schizont net growth area inhibition [2, 5]	hepatic nuclei reduction [3, 4] [%]	hepatic nuclei reduction [3, 5] [%]
CC1=C(CC(=O)c2cccc([N+](=O)[O-])c2)C(=O)c2ccccc2C1=O	-36.2	31.3	12.1	-4	-7	-8
CCCCCCC[C@H]1CN[C@H](C(=O)NC(C(C)Cl)C2O[C@H](SC)[C@H](O)[C@@H](O)[C@H]2O)C1 (stereo not given in full)	-29	47	26	75.9	3	-6
CC(C)(C)CC(C)(C)NCC(O)COc1ccc2c(c1)CCC2 (stereo not given)	0.6	29.2	-5	-10	6	-12
CNc1nnc(Sc2cnn(-c3ccccc3)c(=O)c2Cl)s1	17	-83	-71.8	25.4	14	10
OCc1ccc(-c2cncc(Nc3cccc(Cl)c3)c2)cc1	39	6	59.5	81.4	-1	-1
CC(=O)NCC1CN(c2ccc(-c3ccc(CO)cc3)c(F)c2)C(=O)O1 (stereo not given)	20	-15	-8	-65.6	-3	-8
COc1ccc(C2=C(c3ccc(OC)cc3)C3(c4ccccc4)C(=O)C2(c2ccccc2)C2C(=O)N(c4ccc(C)cc4)C(=O)C23)cc1 (stereo not given)	-13.2	51.9	33.5	-13.9	-12	2
c1ccc(-c2ccc(-c3nc4ccccc4[nH]3)cc2)cc1	-29.6	33.6	26.5	-59	-6	-7
CC1CCCC(CC2Cc3cc(O)cc(O)c3C(=O)O2)O1 (stereo not given)	-55	7	4.6	32.3	1	-3
O=C(Nc1ccccc1)c1ccc(-c2cc3ccncc3cc2OC2CCNCC2)s1	11	-2	71.6	-19.8	6	2
CN(C)CCCNc1c2ccccc2nc2ccccc12	79	67.9	103	90	45	54
CCn1cnc2c(Nc3cc(F)cc(F)c3)nc(C#N)nc21	-21	-24	-93.9	8.6	-11	-4
CCCCCCc1cc2cc(-c3csc(C=Cc4ccccc4)n3)c(=O)oc2cc1O	3.2	35.9	34.8	21.3	-47	9
COc1ccc(C2=NN(C3CCCCCC3)C(=O)C2(C)C)cc1OCc1ccccn1	–	–	–	–	0	-5
COc1ccc(Cl)cc1NC(=O)CN(C)C(=O)c1cnn(-c2ccccc2)n1	7	-15	55	-106	0	-4
O=C1COCc2ccc(Br)cc2N1Cc1ccc(C(F)(F)F)cc1	-15	7	-1.9	-28.5	0	-10
c1ccc(Oc2ccc(-c3cc(C4CCOCC4)[nH]n3)cc2)cc1	5	-36	-45.5	-48.7	-2	5
O=C(Nc1ccc(C23CC4CC(CC(c5ccccc5)(C4)C2)C3)cc1)c1cccs1	34.8	37.4	43	-11.6	-1	7
O=[N+]([O-])c1ccc(C=NNc2nc3ccccc3[nH]2)cc1	17.7	-19.8	16	-15	-1	-8
CN1CCN(c2nccc3[nH]c(-c4cccc(F)c4)cc23)CC1	-34	-12	-47.8	5.5	-6	3
COc1ccc(C2C(C(=O)Nc3cccc(OC)c3)c3ccccc3C(=O)N2C2CCCCC2)cc1 (stereo not given)	4.4	-14.4	-30.3	-61.2	0	-6
CCc1nc(N)nc(N)c1OCCCOc1ccccc1CCC(=O)O	-24	52	97	62.2	-9	-6
COc1cccn2c(C(=O)N3CCCCC3)c(C(F)(F)F)nc12	7	-15	29.8	-152	-2	-9

Reference: the supplement of paper PMC8497498
